These are yes or no findings as the source states them, for the method shown. For some assays here: Binding seen in cells or lysates may run through a third protein. Some results given as binding are weak or reduced against the parent protein; the word gives no strength. Tags and fused reporters may be left off the sequences shown. Each block holds one binder with its values, some of them ahead of it.
Assays:
[1] = target: T1, SNAP190 (residues 1-505), N-terminal FLAG tagged (human) (UniProt Q5SXM2); experiment: SEC; subunits co-expressed in Sf9 cells (mSNAPc#1, mSNAPc#2), anti-FLAG M2 affinity by FLAG-SNAP190(1-505), then Superose 6 increase gel filtration, 4 °C, 100 mM KCl, 25 mM HEPES K+ pH 7.6; both purified
T1 sequence: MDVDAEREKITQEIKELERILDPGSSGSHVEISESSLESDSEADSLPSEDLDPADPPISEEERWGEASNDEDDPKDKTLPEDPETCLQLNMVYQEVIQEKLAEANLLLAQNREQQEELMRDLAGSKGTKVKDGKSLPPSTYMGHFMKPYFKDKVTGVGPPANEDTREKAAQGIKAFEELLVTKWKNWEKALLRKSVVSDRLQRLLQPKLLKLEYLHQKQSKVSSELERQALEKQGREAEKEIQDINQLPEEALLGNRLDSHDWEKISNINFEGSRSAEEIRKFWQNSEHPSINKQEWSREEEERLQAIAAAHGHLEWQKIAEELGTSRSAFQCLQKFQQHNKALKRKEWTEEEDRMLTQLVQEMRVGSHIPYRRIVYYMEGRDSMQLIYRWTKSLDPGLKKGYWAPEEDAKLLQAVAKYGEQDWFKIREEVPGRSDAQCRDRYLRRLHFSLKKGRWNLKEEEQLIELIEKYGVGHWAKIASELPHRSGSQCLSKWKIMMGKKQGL

[2] = target: T2, SNAP190^(140-505) (extreme NTD deletion), N-terminal FLAG tag (human) (UniProt Q5SXM2); experiment: co-IP; truncated subunits co-expressed in Sf9 cells (mSNAPc#3 to #9); lysate supernatant on anti-FLAG M2 resin (bait FLAG-SNAP190 constructs), eluted with 500 μM FLAG peptide; Western blot against FLAG, Strep and TEV cleavage site
T2 sequence: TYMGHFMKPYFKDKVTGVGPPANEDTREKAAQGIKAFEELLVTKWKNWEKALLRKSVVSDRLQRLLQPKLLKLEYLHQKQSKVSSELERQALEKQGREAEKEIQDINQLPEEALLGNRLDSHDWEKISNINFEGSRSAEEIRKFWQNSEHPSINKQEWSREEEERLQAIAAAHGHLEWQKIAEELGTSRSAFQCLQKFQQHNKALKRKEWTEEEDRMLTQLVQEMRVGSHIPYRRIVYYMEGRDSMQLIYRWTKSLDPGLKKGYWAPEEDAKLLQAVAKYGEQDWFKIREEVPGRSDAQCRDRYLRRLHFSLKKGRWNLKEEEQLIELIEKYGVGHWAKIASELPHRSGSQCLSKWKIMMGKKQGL

[3] = target: T3, MBP tagged SNAP190 (residues 1-143) (human) (UniProt Q5SXM2); experiment: SEC; rod module mSNAPc#11 co-expressed in E. coli; Strep-Tactin resin by Strep-SNAP19, then Superose 6 increase column, 4 °C, 150 mM NaCl, 20 mM HEPES Na+ pH 7.5; both purified
T3 sequence: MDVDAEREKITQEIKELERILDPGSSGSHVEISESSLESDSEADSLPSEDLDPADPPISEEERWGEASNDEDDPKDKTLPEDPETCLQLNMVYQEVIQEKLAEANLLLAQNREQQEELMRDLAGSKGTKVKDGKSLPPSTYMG

[4] = target: T4, Strep tagged full-length SNAP19 (human) (UniProt O75971); experiment: as above
T4 sequence: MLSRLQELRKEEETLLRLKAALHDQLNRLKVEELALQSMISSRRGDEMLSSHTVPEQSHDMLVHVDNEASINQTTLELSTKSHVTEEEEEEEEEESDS

[5] = target: T1, SNAP190 (residues 1-505), N-terminal FLAG tagged (human); experiment: cryo-EM structure; 6.7 μM mSNAPc#2 incubated with 35 bp human U6-1 PSE dsDNA at 1:2.5 molar ratio, 100 mM KCl, 25 mM HEPES K+ pH 7.6, 12.5 mM MgCl2, 10 μM ZnCl2, 30 min at 4 °C; 3.49 Å; both purified
SNAP50, untagged (human) = target: T5, SNAP50, untagged (human) (UniProt Q92966); experiment: as above
T5 sequence: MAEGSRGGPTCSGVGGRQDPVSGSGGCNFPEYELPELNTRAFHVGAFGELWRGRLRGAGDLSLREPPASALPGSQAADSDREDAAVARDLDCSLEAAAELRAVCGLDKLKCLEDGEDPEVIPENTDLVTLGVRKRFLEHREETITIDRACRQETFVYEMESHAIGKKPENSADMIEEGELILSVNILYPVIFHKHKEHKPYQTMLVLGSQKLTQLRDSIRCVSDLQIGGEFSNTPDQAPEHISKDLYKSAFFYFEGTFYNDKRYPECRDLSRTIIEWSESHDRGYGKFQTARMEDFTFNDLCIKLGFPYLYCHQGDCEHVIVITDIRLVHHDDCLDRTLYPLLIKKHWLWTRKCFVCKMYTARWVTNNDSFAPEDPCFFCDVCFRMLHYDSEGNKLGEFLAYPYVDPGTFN

[6] = target: T6, SNAP50^(1-411) (full length), N-terminal Strep tag (human) (UniProt Q92966); experiment: co-IP; truncated subunits co-expressed in Sf9 cells (mSNAPc#3 to #9); lysate supernatant on anti-FLAG M2 resin (bait FLAG-SNAP190 constructs), eluted with 500 μM FLAG peptide; Western blot against FLAG, Strep and TEV cleavage site
T6 sequence: T5 sequence

[7] = target: T7, SNAP50^(1-351) (wedge domain deletion), N-terminal Strep tag (human) (UniProt Q92966); experiment: as above
T7 sequence: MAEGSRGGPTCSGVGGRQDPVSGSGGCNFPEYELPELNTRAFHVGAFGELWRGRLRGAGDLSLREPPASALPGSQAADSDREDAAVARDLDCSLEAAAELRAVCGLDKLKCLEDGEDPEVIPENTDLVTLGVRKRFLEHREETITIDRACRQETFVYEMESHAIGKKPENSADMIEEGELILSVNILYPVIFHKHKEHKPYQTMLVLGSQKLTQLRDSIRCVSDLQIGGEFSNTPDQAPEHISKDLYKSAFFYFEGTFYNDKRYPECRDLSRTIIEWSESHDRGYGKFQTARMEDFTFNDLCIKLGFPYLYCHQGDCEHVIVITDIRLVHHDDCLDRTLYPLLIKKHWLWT

binding [2]: binds
B2: SNAP50^(1-351) (wedge domain deletion), N-terminal Strep tag (domain or fragment, UniProt Q92966 1-351)
chain: T7 sequence

binding [2]: binds
B3: SNAP50^(141-411) (lasso domain deletion), N-terminal Strep tag (domain or fragment, UniProt Q92966 141-411)
chain: EETITIDRACRQETFVYEMESHAIGKKPENSADMIEEGELILSVNILYPVIFHKHKEHKPYQTMLVLGSQKLTQLRDSIRCVSDLQIGGEFSNTPDQAPEHISKDLYKSAFFYFEGTFYNDKRYPECRDLSRTIIEWSESHDRGYGKFQTARMEDFTFNDLCIKLGFPYLYCHQGDCEHVIVITDIRLVHHDDCLDRTLYPLLIKKHWLWTRKCFVCKMYTARWVTNNDSFAPEDPCFFCDVCFRMLHYDSEGNKLGEFLAYPYVDPGTFN

binding [2]: binds
B6: SNAP50^(1-411) (full length), N-terminal Strep tag (protein, UniProt Q92966 1-411)
chain: T5 sequence

The next lines start with the binder.

B1: SNAP19, untagged (protein, UniProt O75971 1-98)
chain: T4 sequence
binding [1]: binds

B4: SNAP43 (residues 148-268) with N-terminal MBP tag (domain or fragment, UniProt Q16533 148-268)
chain: MKKKIHRAEVTEEFKDPSDRVMKLITSDVLEEMLNVHDHYQNMKHVISVDKSKPDKALSLIKDDFFDNIKNIVLEHQQWHKDRKNPSLKSKTNDGEEKMEGNSQETERCERAESLAKIKSK
binding [3]: binds
binding [4]: binds

B5: SNAP50, untagged (protein, UniProt Q92966 1-411)
chain: T5 sequence
binding [5]: binds
binding [1]: binds

B7: SNAP43 (full-length), N-terminal 6xHis tagged (protein, UniProt Q16533 1-368)
chain: MGTPPGLQTDCEALLSRFQETDSVRFEDFTELWRNMKFGTIFCGRMRNLEKNMFTKEALALAWRYFLPPYTFQIRVGALYLLYGLYNTQLCQPKQKIRVALKDWDEVLKFQQDLVNAQHFDAAYIFRKLRLDRAFHFTAMPKLLSYRMKKKIHRAEVTEEFKDPSDRVMKLITSDVLEEMLNVHDHYQNMKHVISVDKSKPDKALSLIKDDFFDNIKNIVLEHQQWHKDRKNPSLKSKTNDGEEKMEGNSQETERCERAESLAKIKSKAFSVVIQASKSRRHRQVKLDSSDSDSASGQGQVKATRKKEKKERLKPAGRKMSLRNKGNVQNIHKEDKPLSLSMPVITEEEENESLSGTEFTASKKRRKH
binding [1]: binds

B8: MBP tagged SNAP190 (residues 1-143) (domain or fragment, UniProt Q5SXM2 1-143)
chain: T3 sequence
binding [4]: binds

B9: SNAP43 (residues 1-268), N-terminal 6xHis tagged (domain or fragment, UniProt Q16533 1-268)
chain: MGTPPGLQTDCEALLSRFQETDSVRFEDFTELWRNMKFGTIFCGRMRNLEKNMFTKEALALAWRYFLPPYTFQIRVGALYLLYGLYNTQLCQPKQKIRVALKDWDEVLKFQQDLVNAQHFDAAYIFRKLRLDRAFHFTAMPKLLSYRMKKKIHRAEVTEEFKDPSDRVMKLITSDVLEEMLNVHDHYQNMKHVISVDKSKPDKALSLIKDDFFDNIKNIVLEHQQWHKDRKNPSLKSKTNDGEEKMEGNSQETERCERAESLAKIKSK
binding (SNAP50, untagged (human)): binds
binding [1]: binds

B10: SNAP43^(1-150), N-terminal His-TEV tagged NTD domain of SNAP43 (domain or fragment, UniProt Q16533 1-150)
chain: MGTPPGLQTDCEALLSRFQETDSVRFEDFTELWRNMKFGTIFCGRMRNLEKNMFTKEALALAWRYFLPPYTFQIRVGALYLLYGLYNTQLCQPKQKIRVALKDWDEVLKFQQDLVNAQHFDAAYIFRKLRLDRAFHFTAMPKLLSYRMKK
binding [6]: binds
binding [7]: binds
